Where two headings read alike, the source gives them in different places. Some of the results follow.
Tested on: T1, CTL2-GFP (C. trachomatis L2/434/Bu, GFP-expressing)
T1 construct: L2/434/Bu, GFP-expressing
Parameters: species or system HeLa; Intracellular C. trachomatis growth in HeLa cells, bulk GFP fluorescence relative to DMSO
Settings: bulk GFP, single well, 28.5 h, 10 µM, inhibitor

SMILES | % of control remaining [%] | % of control remaining (Bulk GFP fluorescence) [%]
O=C(O)CCC(=O)Nc1ccc(-c2nc3cc(C(=O)c4ccccc4)ccc3[nH]2)cc1 [CBK267401] | 102.954 | –
CN1CCC(N(C)C(=O)NCc2ccc(C#N)cc2)C1 (stereo not shown) [CBK156005] | 115.916 | –
COc1cccc(C(NC(=O)C2COc3ccc(OC)cc3C2)c2ccccc2)c1 (stereo not shown) [CBK285713] | 109.327 | –
Cc1cc(OCc2nnc(SCC(=O)N3CCN(c4ccccc4)CC3)n2C)ccc1Cl [CBK268611] | 139.627 | –
O=C(O)[C@@H]1CC(O)CN1C(=O)c1ccc2noc(-c3ccccc3)c2c1 (stereo partly shown) [CBK286736] | 111.681 | –
CC(=O)Oc1ccc2c(=O)cc(N(C)C)oc2c1C [CBK016581] | 168.963 | –
Nc1ccc(-c2cccc(C(F)(F)F)c2)c2ccccc12 [CBK084324] | 93.7339 | –
O=C(CN1C(=O)C2CCC(c3ccccc3)CC2C1=O)Nc1cccc2ccccc12 (stereo not shown) [CBK268061] | 122.319 | –
CCOC(=O)C1CCCN(Cc2nc(-c3ccc(F)cc3F)oc2C)C1 (stereo not shown) [CBK306749] | 103.487 | –
c1ccc(CC2CCN(CCOc3ccccc3)CC2)cc1 [CBK126433] | 107.872 | –
Cc1cccc(C)c1NC(=O)CN1CCN(c2nccnc2OC2CCCCC2)CC1 [CBK082835T] | 108.726 | –
S=C(Nc1cccc(Cl)c1Cl)Nc1nn(Cc2ccc(Cl)c(Cl)c2)cc1Cl [CBK267109] | 145.053 | –
CN(C)CCOC1OC(CO)C(O)C(O)C1O (stereo not shown) [CBK012476C] | 104.872 | –
CC(C)(C)NC(=O)c1cccc(N2C(=O)c3ccc(C(=O)O)cc3C2=O)c1 [CBK287123] | 128.888 | –
COC(=O)c1ccc(N2CCN(Cc3nc(C)no3)C(C)C2)cc1 (stereo not shown) [CBK305998] | 110.588 | –
O=C(N/N=C/c1ccc(Cl)cc1Cl)c1nc(-c2ccccc2)cc(-c2ccccc2)n1 [CBK262814] | 110.42 | –
CC(=O)Nc1nn(Cc2cc3c(cc2Cl)OCO3)c2ccccc12 [CBK048251] | 100 | –
CCc1cccc(C)c1NC(=O)C1C2CCC(O2)C1C(=O)O (stereo not shown) [CBK263676] | 119.48 | –
COc1ccc(S(=O)(=O)NCCNC(=O)c2cc(-c3cccc(S(C)(=O)=O)c3)cnc2NCC2CC2)cc1 [CBK076425] | 104.973 | –
CN1CCC[C@H]1C(=O)Nc1cccc2cc[nH]c12 [CBK160098] | 134.704 | –
O=C(NCCCc1ccccn1)C1(c2ccccc2F)CC1 [CBK283155] | 97.91 | –
c1cncc(COc2cncc(OC3CCN(Cc4ccc5c(c4)OCO5)C3)n2)c1 (stereo not shown) [CBK084458] | 100 | –
Cc1cccc(OC(=O)C2C(c3ccccc3)C(C(=O)O)C2c2ccccc2)c1 (stereo not shown) [CBK263843] | 110.784 | –
O=C(Nc1ccc(S(=O)(=O)Nc2nccs2)cc1)C1CC(=O)N(c2ccccc2)C1 (stereo not shown) [CBK264732] | 29.6109 | –
COc1cc(Cl)cc(/C=N/Nc2nc(Nc3ccc(C)c(Cl)c3)nc(N3CCOCC3)n2)c1O [CBK262436] | 100 | –
CN1CCN(S(=O)(=O)c2ccc(-c3cc(C(F)(F)F)on3)s2)CC1 [CBK057780] | 110.778 | –

Reprinted from above, 3 compounds:
SMILES | % of control remaining [%] | % of control remaining (Bulk GFP fluorescence) [%]
c1ccc(CC2CCN(CCOc3ccccc3)CC2)cc1 [CBK126433] | 107.872 | –
Cc1cccc(C)c1NC(=O)CN1CCN(c2nccnc2OC2CCCCC2)CC1 [CBK082835T] | 108.726 | –
S=C(Nc1cccc(Cl)c1Cl)Nc1nn(Cc2ccc(Cl)c(Cl)c2)cc1Cl [CBK267109] | 145.053 | –

(list continues)

SMILES | % of control remaining [%] | % of control remaining (Bulk GFP fluorescence) [%]
Cc1nn(C)c(Cl)c1S(=O)(=O)Nc1cccc(-c2nnn[nH]2)c1 [CBK062127] | 114.817 | –
O=C(Nc1cccc(F)c1)N(Cc1cccnc1)CC1CCCO1 (stereo not shown) [CBK304065] | 88.579 | –
CC(C)c1noc(N2CCC(Oc3ccc(-c4ccc(S(C)(=O)=O)cc4)cn3)CC2)n1 [CBK158821] | 75.3558 | –
COc1ccc(CCN2C(=O)c3ccccc3C2(O)c2ncc[nH]2)cc1OC (stereo not shown) [CBK262717] | 97.407 | –
Cc1cccc(C(=O)Nc2ccccc2C(=O)N2CCN(C)CC2)c1 [CBK268565] | 128.687 | –
O=C(NC(NCc1ccco1)C(Cl)(Cl)Cl)c1ccc(Br)cc1 (stereo not shown) [CBK262174] | 94.014 | –
COCCNC(=O)c1cc(-c2ccc(Cl)cc2)cnc1NS(C)(=O)=O [CBK106421] | 100 | –
OC1(c2cccnc2F)CCN(Cc2c(F)cccc2F)CC1 [CBK283149] | 89.5052 | –
Cc1ccc(S(=O)(=O)NCC(=O)Nc2ccc(Cl)nc2)cc1 [CBK091355] | 115.576 | –
O=c1[nH]c2ncc(-c3ccsc3)nc2n1CC1CCOCC1 [CBK064293] | 186.121 | –
CS(=O)(=O)N1CC2(CCN(CCCC#N)CC2)c2ccccc21 [CBK084014] | 112.67 | –
COc1ccc(C2C(C(C)=O)=C(O)C(=O)N2CCCC(=O)O)cc1 (stereo not shown) [CBK263774] | 100 | –
COc1ccc2c(c1)N1CCCN=C1N2C [CBK011358C] | 135.842 | –
COc1ccc([N+](=O)[O-])cc1COc1ccc2c(C(F)(F)F)cc(=O)oc2c1 [CBK265173] | 119.355 | –
Cc1cc(-c2ccccc2)nc(SCC(=O)Nc2nnc(C)s2)n1 [CBK058194] | 123.006 | –
CC(Sc1nc(C2CC2)n(-c2ccccc2)n1)C(=O)N1CCNC1=O (stereo not shown) [CBK297144] | 153.092 | –
O=C(Nc1cccnc1)c1cnc2cc(C(F)(F)F)ccc2c1O [CBK107474T] | – | 110.979
Cc1ccc(CN(CCCN(C)C)Cc2cccc(O)c2)o1 [CBK283173] | 84.5986 | –
COc1ccc(-c2noc(CNC(=O)Nc3ccc(F)cc3)n2)cc1OC [CBK269784] | 122.898 | –
O=C(Nc1cccc(C(=O)O)c1)/C(=C\c1ccc2c(c1)OCO2)NC(=O)c1ccccc1Cl [CBK263746] | 100 | –
CCn1c2c(c(=O)[nH]c1=O)C(c1ccccc1)C1=C(COC1=O)N2 (stereo not shown) [CBK287704] | 122.171 | –
CC(C)OC(=O)c1cccnc1N1CCN(CCCC(c2ccc(F)cc2)c2ccc(F)cc2)CC1 [CBK025340C] | 103.659 | –
CCCc1cc(=O)nc(N/C(=N\C(=O)c2ccccc2)Nc2ccc3c(c2)OCCO3)[nH]1 [CBK266485] | 88.077 | –
CCc1c(C)nc2c(C(=O)NCCCOC)cnn2c1C [CBK162149] | 128.043 | –
O=C(NC(c1ccc(-c2ccccc2)cc1)c1cnccn1)C1CCN(CCc2ccc(F)cc2)CC1 (stereo not shown) [CBK147981] | 124.095 | –
Cc1ccc(S(=O)(=O)NC(C)C(=O)Nc2cc(-c3nc4ccccc4[nH]3)ccc2C)cc1 (stereo not shown) [CBK110320] | 117.342 | –

Shown field by field: two of the compounds above.
COc1ccc(C2C(C(C)=O)=C(O)C(=O)N2CCCC(=O)O)cc1 (stereo not shown) [CBK263774]
  % of control remaining [%]: 100
COc1ccc2c(c1)N1CCCN=C1N2C [CBK011358C]
  % of control remaining [%]: 135.842

Additional results:

SMILES | % of control remaining [%] | % of control remaining (Bulk GFP fluorescence) [%]
CCOC(=O)c1cnn2c(O)cc(CN(Cc3cccs3)C3CC3)nc12 [CBK305625] | 138.816 | –
COc1ccc(-c2nnc([C@H]3CCN(C(=O)C4CC4)C3)o2)cc1 [CBK289409] | 111.506 | –
CCCCCn1c(Cc2ccccc2)n[nH]c1=O [CBK013059] | 135.008 | –
CC(C(=O)N1CCC(O)(c2ccccn2)CC1)c1ccccc1 (stereo not shown) [CBK282396] | 160.905 | –
CCCCOc1ccc(-c2nnn(CC(=O)Nc3ccccc3)n2)cc1 [CBK070609] | 106.305 | –
COc1ccc(Br)cc1C1CC(=O)Nc2c(-c3cccc(F)c3)csc21 (stereo not shown) [CBK294442] | 23.7031 | –
CC(O)CNCCNc1c(Cl)cccc1[N+](=O)[O-] (stereo not shown) [CBK262802C] | 118.104 | –
CCOC(=O)c1c(-c2ccc(C)o2)csc1NC(=O)CN1C(=O)c2ccccc2C1=O [CBK267699] | 136.069 | –
COC(=O)CCc1ccc(S(=O)(=O)N2CCN(Cc3cc(C)c(O)c(C)c3)CC2)cc1 [CBK062814] | 123.087 | –
Cc1c(Nc2nc3nonc3nc2Nc2cccc(Cl)c2)c(=O)n(-c2ccccc2)n1C [CBK263073] | 103.703 | –
CCN(CC)C(=O)c1sccc1NS(=O)(=O)c1cc(Br)c(Cl)s1 [CBK004599] | 73.2066 | –
N#Cc1ccc(Oc2ccc(C(=O)C(=O)c3ccccc3)cc2)cc1C#N [CBK260959] | 84.0959 | –
O=C(NC(=S)Nc1cccc(-c2nc3ncccc3o2)c1)c1cc([N+](=O)[O-])ccc1N1CCOCC1 [CBK268756] | 118.217 | –
COc1ccc(CN2CCCN(C(=O)c3ccc(F)cc3Br)CC2)cc1 [CBK251752] | 93.9788 | –
Cc1cccc(C)c1NC(=O)CN1CCC(Oc2cncc(OCc3cccnc3)n2)C1 (stereo not shown) [CBK084460] | 97.3821 | –
COC(=O)[C@H]1CN(C(=O)c2ccco2)C[C@@H]1c1ccc(F)cc1 [CBK283733] | 120.858 | –
COc1ccc2cc(C(=O)N3CCn4cncc4C3)n(C)c2c1 [CBK304362] | 109.921 | –
CCC(CO)NCc1ccc(-c2ccccc2)cc1 (stereo not shown) [CBK268082C] | 113.096 | –
CN(C)C(CNCc1cn(C)nc1-c1cccnc1)c1ccccc1 (stereo not shown) [CBK304511] | 133.668 | –
CCC(C)Nc1nc(SCC(=O)OC)nc(N(C)C)n1 (stereo not shown) [CBK269780] | 117.941 | –
CC(=O)NC[C@H]1CN(c2ccc3c(c2)CCN(C(C)=O)CC3)C(=O)O1 [CBK018491] | 10.4848 | –
COc1ccc([C@@]23CC[C@@H](NC(=O)c4ccc(C(F)(F)F)c(F)c4)C[C@@H]2CN(C)C3)cc1OC [CBK082742C] | 120.321 | –
CC(=O)NC1(c2ccc(F)cc2)CCN(Cc2cccnc2)CC1 [CBK283610] | 117.379 | –
O=C([C@@H]1C[C@@H](O)[C@H](O)[C@@H]2NC(=S)N(c3ccc4c(c3)OCO4)[C@@H]21)N1CCCCC1 [CBK288945] | 124.33 | –

From paper PMC12040169 (PLOS Biology, 2025)
